The experiment addresses Myc-CCR2B47, Myc-tagged CCR2B tail fragment translated in vitro from pGBKT7-CCR2B47 (UniProt P41597). Description: co-IP; in vitro translated Myc-CCR2B47 mixed with lysates of untransfected A7 or M2 cells in 1% Brij 96 V lysis buffer; immunoprecipitation with anti-c-Myc, blot for FLNa.

Sequences of proteins named here, by UniProt entry; tags and fusion partners are left off. A change or cut given only in a name is not applied to a line headed by its entry.
UniProt P41597: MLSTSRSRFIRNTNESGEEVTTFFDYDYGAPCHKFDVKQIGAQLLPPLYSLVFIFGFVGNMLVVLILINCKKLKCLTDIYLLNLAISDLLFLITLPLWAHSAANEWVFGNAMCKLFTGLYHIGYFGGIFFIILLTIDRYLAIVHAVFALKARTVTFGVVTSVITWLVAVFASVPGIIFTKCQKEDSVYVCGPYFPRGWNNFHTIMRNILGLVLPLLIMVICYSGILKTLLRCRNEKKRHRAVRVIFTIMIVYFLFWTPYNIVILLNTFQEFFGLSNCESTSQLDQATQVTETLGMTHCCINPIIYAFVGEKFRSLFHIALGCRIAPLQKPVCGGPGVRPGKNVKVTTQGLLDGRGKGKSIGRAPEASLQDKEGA
UniProt P21333: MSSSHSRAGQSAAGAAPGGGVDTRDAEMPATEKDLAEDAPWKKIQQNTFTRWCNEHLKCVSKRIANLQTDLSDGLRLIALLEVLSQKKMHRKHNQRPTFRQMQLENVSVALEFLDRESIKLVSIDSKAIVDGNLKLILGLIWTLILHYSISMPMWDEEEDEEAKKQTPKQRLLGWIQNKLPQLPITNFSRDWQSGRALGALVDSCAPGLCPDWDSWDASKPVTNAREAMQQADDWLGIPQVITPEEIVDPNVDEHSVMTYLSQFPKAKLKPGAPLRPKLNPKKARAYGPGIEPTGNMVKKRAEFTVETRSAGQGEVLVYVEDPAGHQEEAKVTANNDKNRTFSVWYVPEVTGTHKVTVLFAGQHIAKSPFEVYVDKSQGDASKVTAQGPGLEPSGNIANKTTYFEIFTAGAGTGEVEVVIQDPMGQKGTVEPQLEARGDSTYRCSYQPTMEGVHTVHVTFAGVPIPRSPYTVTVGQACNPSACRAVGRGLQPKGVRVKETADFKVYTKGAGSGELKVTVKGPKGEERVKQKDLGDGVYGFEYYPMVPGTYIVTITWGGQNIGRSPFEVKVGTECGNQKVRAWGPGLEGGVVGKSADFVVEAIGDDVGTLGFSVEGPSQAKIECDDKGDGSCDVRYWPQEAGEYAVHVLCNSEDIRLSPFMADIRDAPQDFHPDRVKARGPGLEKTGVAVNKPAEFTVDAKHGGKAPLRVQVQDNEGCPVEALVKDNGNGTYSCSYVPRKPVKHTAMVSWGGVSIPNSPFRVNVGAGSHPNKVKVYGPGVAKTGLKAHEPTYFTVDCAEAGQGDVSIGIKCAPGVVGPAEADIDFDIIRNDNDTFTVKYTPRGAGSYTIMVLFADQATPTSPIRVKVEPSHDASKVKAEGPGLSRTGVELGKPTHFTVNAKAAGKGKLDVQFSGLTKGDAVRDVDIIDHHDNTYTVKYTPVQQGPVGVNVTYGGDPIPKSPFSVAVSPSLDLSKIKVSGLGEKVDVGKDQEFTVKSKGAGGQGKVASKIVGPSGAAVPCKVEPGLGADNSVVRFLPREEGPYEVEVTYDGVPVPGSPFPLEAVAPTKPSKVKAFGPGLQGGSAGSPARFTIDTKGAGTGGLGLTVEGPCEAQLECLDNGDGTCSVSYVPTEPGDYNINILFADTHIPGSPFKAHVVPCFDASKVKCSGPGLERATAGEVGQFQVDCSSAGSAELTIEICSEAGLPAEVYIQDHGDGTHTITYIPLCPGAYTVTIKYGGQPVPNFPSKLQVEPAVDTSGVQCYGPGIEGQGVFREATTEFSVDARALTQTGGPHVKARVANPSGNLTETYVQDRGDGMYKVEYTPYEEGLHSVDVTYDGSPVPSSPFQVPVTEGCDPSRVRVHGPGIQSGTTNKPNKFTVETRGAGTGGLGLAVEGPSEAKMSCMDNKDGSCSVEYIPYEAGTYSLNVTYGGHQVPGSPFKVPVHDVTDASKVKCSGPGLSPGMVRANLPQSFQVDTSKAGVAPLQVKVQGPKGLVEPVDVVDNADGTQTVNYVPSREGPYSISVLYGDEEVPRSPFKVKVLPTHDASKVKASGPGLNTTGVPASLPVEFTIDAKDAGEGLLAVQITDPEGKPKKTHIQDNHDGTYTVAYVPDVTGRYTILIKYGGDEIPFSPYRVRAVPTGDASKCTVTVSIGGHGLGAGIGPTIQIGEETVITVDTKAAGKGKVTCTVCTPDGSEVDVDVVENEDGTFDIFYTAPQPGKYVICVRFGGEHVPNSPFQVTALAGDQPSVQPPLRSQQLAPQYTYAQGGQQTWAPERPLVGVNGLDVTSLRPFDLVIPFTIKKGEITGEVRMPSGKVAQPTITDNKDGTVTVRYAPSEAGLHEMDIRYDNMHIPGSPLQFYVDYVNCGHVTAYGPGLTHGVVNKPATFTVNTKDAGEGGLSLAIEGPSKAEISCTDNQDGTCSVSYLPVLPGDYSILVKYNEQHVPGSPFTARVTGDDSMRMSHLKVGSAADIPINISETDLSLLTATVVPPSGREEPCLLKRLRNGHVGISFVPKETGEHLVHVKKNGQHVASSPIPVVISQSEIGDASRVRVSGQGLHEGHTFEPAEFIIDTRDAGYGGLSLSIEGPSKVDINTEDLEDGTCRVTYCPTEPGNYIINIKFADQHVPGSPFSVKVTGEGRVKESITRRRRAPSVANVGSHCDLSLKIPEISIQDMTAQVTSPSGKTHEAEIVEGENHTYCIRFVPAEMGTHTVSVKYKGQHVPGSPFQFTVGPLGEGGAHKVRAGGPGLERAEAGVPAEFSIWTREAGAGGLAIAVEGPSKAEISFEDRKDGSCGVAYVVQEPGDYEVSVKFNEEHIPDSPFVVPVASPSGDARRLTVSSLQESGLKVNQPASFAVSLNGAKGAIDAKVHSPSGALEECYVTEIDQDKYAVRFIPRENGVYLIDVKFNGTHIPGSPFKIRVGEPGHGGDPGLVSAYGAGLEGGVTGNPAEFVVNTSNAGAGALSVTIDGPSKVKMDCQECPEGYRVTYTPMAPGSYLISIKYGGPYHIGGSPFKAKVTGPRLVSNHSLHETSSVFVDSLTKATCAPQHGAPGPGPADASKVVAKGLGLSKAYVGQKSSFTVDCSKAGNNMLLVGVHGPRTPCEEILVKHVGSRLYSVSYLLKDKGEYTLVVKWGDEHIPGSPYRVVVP

No constants are given. Whether binding was seen depends on the method and setting. In cells and extracts the contact can be indirect. A result given as binding can be weak or reduced; the word gives no strength.

For “Filamin A, full length, in A7 cells (from UniProt P21333 1-2647)”, the binding result is “binds”.

Values taken from publication PMC2923182.
